PubChem BioAssay AID1224828, NIAID | 2016
The deposit covers about 17,000 reagents; shown is an unselected part. Of all reagents, 762 (4.5%) were called active. 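Active calls include both raised and lowered p65 entry, mostly lowered; wells with fewer than 50 cells lack a z-score.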 Raw values are not corrected between plates. Reagents against one gene are numbered here.

Purpose: 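Find genes required for NF-kappaB p65 moving into the nucleus after LPS in mouse macrophages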 (primary screen)
Cells: mouse RAW264.7 G9 macrophage reporter cells (GFP-p65, Tnf promoter-mCherry)
Knock-down reagent: siRNA pool against mouse genes, 100 nM
Duration: 2 days siRNA transfection, then 40 min LPS before fixation
Challenge: LPS (Salmonella minnesota R595) at 10 ng/ml
Detection: 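Imaged p65 nuclear translocation ratio, normalised to the plate median, converted to robust z-scores and averaged across two replicates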
Direction: p65 translocation robust z-score: higher = more nuclear NF-kappaB p65 after LPS than the plate median; nuclear/cytoplasmic p65 ratio: higher = more nuclear NF-kappaB p65
Hit rule: 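Called active when z exceeds 3.3 or falls under -1.56 (median of Tlr4 controls), giving activity score of at least 50; no calls for control wells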
Meaning of the calls: active = hit (p65 shift raised or lowered); inactive = no clear change

Bend6 (BEN domain containing 6) — p65 translocation robust z-score = -2.11; nuclear/cytoplasmic p65 ratio, rep 1 = 1.22; nuclear/cytoplasmic p65 ratio, rep 2 = 1.28; low cell count flag = enough cells to score; outcome = active
Il17c (interleukin 17C) — p65 translocation robust z-score = 0.4; nuclear/cytoplasmic p65 ratio, rep 1 = 1.56; nuclear/cytoplasmic p65 ratio, rep 2 = 1.41; low cell count flag = enough cells to score; outcome = inactive
Prl4a1 (prolactin family 4, subfamily a, member 1) — p65 translocation robust z-score = 0.05; nuclear/cytoplasmic p65 ratio, rep 1 = 1.45; nuclear/cytoplasmic p65 ratio, rep 2 = 1.17; low cell count flag = enough cells to score; outcome = inactive
Fbln7 (fibulin 7) — p65 translocation robust z-score = -0.1; nuclear/cytoplasmic p65 ratio, rep 1 = 1.57; nuclear/cytoplasmic p65 ratio, rep 2 = 1.39; low cell count flag = enough cells to score; outcome = inactive
Nudt13 (nudix hydrolase 13) — p65 translocation robust z-score = -0.57; nuclear/cytoplasmic p65 ratio, rep 1 = 1.62; nuclear/cytoplasmic p65 ratio, rep 2 = 1.45; low cell count flag = enough cells to score; outcome = inactive
D930046H04Rik (RIKEN cDNA D930046H04 gene) — p65 translocation robust z-score = -2.23; nuclear/cytoplasmic p65 ratio, rep 1 = 1.17; nuclear/cytoplasmic p65 ratio, rep 2 = 1.3; low cell count flag = enough cells to score; outcome = active
Rexo4 (REX4, 3'-5' exonuclease) — p65 translocation robust z-score = 1.45; nuclear/cytoplasmic p65 ratio, rep 1 = 1.94; nuclear/cytoplasmic p65 ratio, rep 2 = 1.68; low cell count flag = enough cells to score; outcome = inactive
Pou3f2 (POU domain, class 3, transcription factor 2) — p65 translocation robust z-score = -1.58; nuclear/cytoplasmic p65 ratio, rep 1 = 1.34; nuclear/cytoplasmic p65 ratio, rep 2 = 1.15; low cell count flag = enough cells to score; outcome = active
Tcaf3 (TRPM8 channel-associated factor 3) — nuclear/cytoplasmic p65 ratio, rep 1 = 1.15; nuclear/cytoplasmic p65 ratio, rep 2 = 1.57; low cell count flag = fewer than 50 cells per well; well left out of scoring; outcome = inactive
Nfia (nuclear factor I/A) #1 — p65 translocation robust z-score = 0.04; nuclear/cytoplasmic p65 ratio, rep 1 = 1.47; nuclear/cytoplasmic p65 ratio, rep 2 = 1.41; low cell count flag = enough cells to score; outcome = inactive
Nfia (nuclear factor I/A) #2 — p65 translocation robust z-score = -1.08; nuclear/cytoplasmic p65 ratio, rep 1 = 1.25; nuclear/cytoplasmic p65 ratio, rep 2 = 1.43; low cell count flag = enough cells to score; outcome = inactive
Fbxl2 (F-box and leucine-rich repeat protein 2) — p65 translocation robust z-score = 0.6; nuclear/cytoplasmic p65 ratio, rep 1 = 1.63; nuclear/cytoplasmic p65 ratio, rep 2 = 1.37; low cell count flag = enough cells to score; outcome = inactive
D830039M14Rik (RIKEN cDNA D830039M14 gene) — p65 translocation robust z-score = -0.04; nuclear/cytoplasmic p65 ratio, rep 1 = 1.56; nuclear/cytoplasmic p65 ratio, rep 2 = 1.55; low cell count flag = enough cells to score; outcome = inactive
Creb3l4 (cAMP responsive element binding protein 3-like 4) — p65 translocation robust z-score = 0.56; nuclear/cytoplasmic p65 ratio, rep 1 = 1.79; nuclear/cytoplasmic p65 ratio, rep 2 = 1.73; low cell count flag = enough cells to score; outcome = inactive
Tmem176b (transmembrane protein 176B) — p65 translocation robust z-score = -0.07; nuclear/cytoplasmic p65 ratio, rep 1 = 1.38; nuclear/cytoplasmic p65 ratio, rep 2 = 1.25; low cell count flag = enough cells to score; outcome = inactive
Lars2 (leucyl-tRNA synthetase, mitochondrial) — p65 translocation robust z-score = 1.36; nuclear/cytoplasmic p65 ratio, rep 1 = 1.7; nuclear/cytoplasmic p65 ratio, rep 2 = 1.65; low cell count flag = enough cells to score; outcome = inactive
Sdhaf4 (succinate dehydrogenase complex assembly factor 4) — p65 translocation robust z-score = -0.71; nuclear/cytoplasmic p65 ratio, rep 1 = 1.42; nuclear/cytoplasmic p65 ratio, rep 2 = 1.37; low cell count flag = enough cells to score; outcome = inactive
Ago4 (argonaute RISC catalytic subunit 4) — p65 translocation robust z-score = 0.17; nuclear/cytoplasmic p65 ratio, rep 1 = 1.5; nuclear/cytoplasmic p65 ratio, rep 2 = 1.37; low cell count flag = enough cells to score; outcome = inactive
Erdr1x (erythroid differentiation regulator 1 x) — p65 translocation robust z-score = 2.16; nuclear/cytoplasmic p65 ratio, rep 1 = 1.6; nuclear/cytoplasmic p65 ratio, rep 2 = 2.04; low cell count flag = enough cells to score; outcome = inactive
Enox1 (ecto-NOX disulfide-thiol exchanger 1) — p65 translocation robust z-score = 0.51; nuclear/cytoplasmic p65 ratio, rep 1 = 1.66; nuclear/cytoplasmic p65 ratio, rep 2 = 1.61; low cell count flag = enough cells to score; outcome = inactive
Tia1 (cytotoxic granule-associated RNA binding protein 1) — p65 translocation robust z-score = 0.4; nuclear/cytoplasmic p65 ratio, rep 1 = 1.57; nuclear/cytoplasmic p65 ratio, rep 2 = 1.38; low cell count flag = enough cells to score; outcome = inactive
Tra2a (transformer 2 alpha) #1 — p65 translocation robust z-score = -1.53; nuclear/cytoplasmic p65 ratio, rep 1 = 1.42; nuclear/cytoplasmic p65 ratio, rep 2 = 1.15; low cell count flag = enough cells to score; outcome = inactive
Tra2a (transformer 2 alpha) #2 — p65 translocation robust z-score = 1.48; nuclear/cytoplasmic p65 ratio, rep 1 = 1.72; nuclear/cytoplasmic p65 ratio, rep 2 = 1.75; low cell count flag = enough cells to score; outcome = inactive
Ints4 (integrator complex subunit 4) — nuclear/cytoplasmic p65 ratio, rep 1 = 1.21; nuclear/cytoplasmic p65 ratio, rep 2 = 1.42; low cell count flag = fewer than 50 cells per well; well left out of scoring; outcome = inactive
Ereg (epiregulin) — p65 translocation robust z-score = -0.77; nuclear/cytoplasmic p65 ratio, rep 1 = 1.34; nuclear/cytoplasmic p65 ratio, rep 2 = 1.28; low cell count flag = enough cells to score; outcome = inactive
Mttp (microsomal triglyceride transfer protein) — p65 translocation robust z-score = -0.85; nuclear/cytoplasmic p65 ratio, rep 1 = 1.3; nuclear/cytoplasmic p65 ratio, rep 2 = 1.26; low cell count flag = enough cells to score; outcome = inactive
Tbc1d8 (TBC1 domain family, member 8) — p65 translocation robust z-score = 0.25; nuclear/cytoplasmic p65 ratio, rep 1 = 1.44; nuclear/cytoplasmic p65 ratio, rep 2 = 1.18; low cell count flag = enough cells to score; outcome = inactive

3 entries from above, ordered by “p65 translocation robust z-score”, low to high:
Tra2a (transformer 2 alpha) #1 — p65 translocation robust z-score = -1.53; nuclear/cytoplasmic p65 ratio, rep 1 = 1.42; nuclear/cytoplasmic p65 ratio, rep 2 = 1.15; low cell count flag = enough cells to score; outcome = inactive
Tia1 (cytotoxic granule-associated RNA binding protein 1) — p65 translocation robust z-score = 0.4; nuclear/cytoplasmic p65 ratio, rep 1 = 1.57; nuclear/cytoplasmic p65 ratio, rep 2 = 1.38; low cell count flag = enough cells to score; outcome = inactive
Enox1 (ecto-NOX disulfide-thiol exchanger 1) — p65 translocation robust z-score = 0.51; nuclear/cytoplasmic p65 ratio, rep 1 = 1.66; nuclear/cytoplasmic p65 ratio, rep 2 = 1.61; low cell count flag = enough cells to score; outcome = inactive
